# Article PMC12670160, “A drug-repurposing screen of FDA- and EMA-approved drugs identifies two NF-κB inhibitors active against eumycetoma” (Journal of Antimicrobial Chemotherapy, 2025)
# Structures can show the parent of a compound that is named as a salt. In all, about 5,300 compounds went through this assay and about 130 (2.5%) showed an effect of 50% or more. The list shows a part of the results.
# System: M. mycetomatis strain mm55
# Details: primary screen, metabolic activity vs growth control; 96 h, 2 µM; inhibitor
row,Compound,% viability [%]
1,"CCN1CCN(c2ccc(Nc3cc(N(C)C(=O)Nc4c(Cl)c(OC)cc(OC)c4Cl)ncn3)cc2)CC1 [ONC0004412, bgj398 nvpbgj398]",153.1
2,"Nc1nc(=O)[nH]cc1F [ONC0004154, flucytosine]",87.46
3,"Clc1cc(Cl)c(OCC#CI)cc1Cl [ONC0002291, haloprogin]",78.44
4,"CCCCCS(=O)(=O)CCCCCCCCCCn1c(-c2ccc(O)cc2)c(C)c2cc(O)ccc21 [ONC0000107, zk164015]",115.3
5,"CC[C@@]1(O)C(=O)OCc2c1cc1n(c2=O)Cc2cc3c(CN(C)C)c(O)ccc3nc2-1 [ONC0000766, topotecan hydrochloride]",74.7
6,"Cc1cc(Nc2cc(CN3CCOCC3)c3nc(C)c(Cc4ccc(Cl)cc4F)n3n2)n[nH]1 [ONC0004991, gandotinib ly2784544]",97.64
7,"CCOC(=O)N[C@@H]1CC[C@@H]2[C@@H](C1)C[C@H]1C(=O)O[C@H](C)[C@H]1[C@H]2/C=C/c1ccc(-c2cccc(F)c2)cn1 [ONC0000376, vorapaxar]",61.62
8,"NCCNc1ccc(NCCN)c2c1C(=O)c1ccncc1C2=O.O=C(O)/C=C\C(=O)O.O=C(O)/C=C\C(=O)O [ONC0000916, pixantrone dimaleate]",85.22
9,"Nc1nnc(-c2cccc(Cl)c2Cl)c(N)n1 [ONC0004106, lamotrigine]",106.8
10,"O=c1c(-c2ccccc2)c1-c1ccccc1 [ONC0002186, diphencyprone]",90.26
11,"CN1C(=O)N(c2ccc(C#N)c(C(F)(F)F)c2)C(=O)[C@]1(CO)c1ccccc1 [ONC0001168, glpg0492 r enantiomer]",118.7
12,"O=C1c2ccccc2CCC1CNCCc1ccc(O)cc1 (stereo not drawn) [ONC0002614, be2254]",77.21
13,"O=C(O)c1ccc(O)c2ncccc12 [ONC0001204, iox1]",89.28
14,"COc1cc2ncnc(Nc3ccc(O)c(Br)c3)c2cc1OC [ONC0004777, whip154]",106.5
15,"Cc1ccc(S(N)(=O)=O)cc1 [ONC0003698, paratoluenesulfonamide]",85.86
16,"O=C(OCC(O)CO)c1ccccc1Nc1ccnc2c(C(F)(F)F)cccc12 (stereo not drawn) [ONC0004759, floctafenine]",102.3
17,"Cc1cccc(NC(=O)CN2CCC(c3ccccn3)CC2)c1 [ONC0000843, a412997]",54.65
18,"CO[C@H]1C[C@@H]2CC[C@@H](C)[C@@](O)(O2)C(=O)C(=O)N2CCCC[C@H]2C(=O)O[C@H]([C@H](C)C[C@@H]2CC[C@H](n3cnnn3)[C@H](OC)C2)CC(=O)[C@H](C)/C=C(\C)[C@@H](O)[C@@H](OC)C(=O)[C@H](C)C[C@H](C)/C=C/C=C/C=C/1C [ONC0000353, zotarolimus]",64.47

# Arranged by formula weight (low to high): three of the compounds above
row,Compound,% viability [%]
2,"Nc1nc(=O)[nH]cc1F [ONC0004154, flucytosine]",87.46
13,"O=C(O)c1ccc(O)c2ncccc12 [ONC0001204, iox1]",89.28
11,"CN1C(=O)N(c2ccc(C#N)c(C(F)(F)F)c2)C(=O)[C@]1(CO)c1ccccc1 [ONC0001168, glpg0492 r enantiomer]",118.7
